Laboratory results published in PMC4447949, “Structures of the Ets Protein DNA-binding Domains of Transcription Factors Etv1, Etv4, Etv5, and Fev” (The Journal of Biological Chemistry, 2015).
Changes are numbered by the printed parent chain. Construct, isoform or probe ends are uncertain for at least one entry. For some of these results: Whether high values mean tight binding is not given here for every scale. For some of these results: Tags and fusion partners may be left off the protein sequences shown.

The chains behind the UniProt entries cited, without tags or fusion partners. Residues count along the entry.
UniProt P43268, 338-470: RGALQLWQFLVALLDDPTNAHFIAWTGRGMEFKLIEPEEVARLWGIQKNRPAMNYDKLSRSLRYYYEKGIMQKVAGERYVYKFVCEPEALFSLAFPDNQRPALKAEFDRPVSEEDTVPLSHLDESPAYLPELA
UniProt P41161, 365-462: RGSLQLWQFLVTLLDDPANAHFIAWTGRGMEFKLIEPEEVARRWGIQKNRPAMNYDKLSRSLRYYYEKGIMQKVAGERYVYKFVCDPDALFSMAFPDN

What was measured:
Experiment in all cases: EMSA
[1] = target: Etv1 WT dimer (purified oxidized) (human) (UniProt P50549); settings: EMSA: 50 mM Tris-HCl pH 7.5, 50 mM NaCl, 2 mM MgCl2, 0.01% Tween 20, 5% glycerol, 1 h at room temperature, proteins reduced with 10 mM TCEP unless stated, 10% native PAGE, recombinant protein, residues 326-429, protein details: N-terminal His6 removed by TEV (leaves SM)
Etv1 Y396A (human) = target: T1, Etv1 Y396A (human) (UniProt P50549); settings: EMSA: 50 mM Tris-HCl pH 7.5, 50 mM NaCl, 2 mM MgCl2, 0.01% Tween 20, 5% glycerol, 1 h at room temperature; proteins reduced with 10 mM TCEP unless stated; 10% native PAGE; recombinant protein; residues 326-429; protein details: N-terminal His6 removed by TEV (leaves SM)
T1 sequence (looked up): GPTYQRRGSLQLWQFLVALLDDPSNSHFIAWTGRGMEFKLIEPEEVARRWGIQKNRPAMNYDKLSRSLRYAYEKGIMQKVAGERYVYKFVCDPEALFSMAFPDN

Etv1 Y397A (human) = target: T2, Etv1 Y397A (human) (UniProt P50549); settings: Discussion: complete loss of binding; EMSA: 50 mM Tris-HCl pH 7.5, 50 mM NaCl, 2 mM MgCl2, 0.01% Tween 20, 5% glycerol, 1 h at room temperature; proteins reduced with 10 mM TCEP unless stated; 10% native PAGE; recombinant protein; residues 326-429; protein details: N-terminal His6 removed by TEV (leaves SM)
T2 sequence (looked up): T1 sequence (looked up) with A71Y, Y72A

[2] = target: Etv4 Ets domain oxidized dimer (human) (UniProt P43268); settings: oxidized, estimate, no saturation; EMSA: 50 mM Tris-HCl pH 7.5, 50 mM NaCl, 2 mM MgCl2, 0.01% Tween 20, 5% glycerol, 1 h at room temperature; proteins reduced with 10 mM TCEP unless stated; 10% native PAGE; recombinant protein; residues 338-470; protein details: N-terminal His6 removed by TEV (leaves SM)
[3] = target: Etv5 Ets domain oxidized dimer (human) (UniProt P41161); settings: oxidized, estimate, no saturation; EMSA: 50 mM Tris-HCl pH 7.5, 50 mM NaCl, 2 mM MgCl2, 0.01% Tween 20, 5% glycerol, 1 h at room temperature; proteins reduced with 10 mM TCEP unless stated; 10% native PAGE; recombinant protein; residues 365-462; protein details: N-terminal His6 removed by TEV (leaves SM)

Sequence: ATCTCACCGGAAGTGTAGCA (double strand) [Etv1ALF/Etv1ALR EMSA probe]
- Kd ([1]; 0.1 nM probe, 1:9 GSH:GSSG): 272 1e-10 M
- Kd ([1]; 0.1 nM probe, 9:1 GSH:GSSG): 171 1e-10 M
- Kd ([1]; 0.1 nM probe, dimer reduced with 10 mM TCEP): 2.6 1e-10 M
- Kd ([1]; 0.1 nM probe, oxidized, no TCEP): 802 1e-10 M
- Kd ([1]; 2 nM probe, dimer reduced with 10 mM TCEP): 11.2 1e-10 M
- Kd ([1]; 2 nM probe, oxidized, no TCEP): 195 1e-10 M
- binding signal (fold reduction in affinity) (Etv1 Y396A (human)): > 1000
- binding signal (fold reduction in affinity) (Etv1 Y397A (human)): > 1000
- Kd [2]: 148 1e-10 M
- Kd [3]: 790 1e-10 M
